Laboratory results taken from patent publication US7037662.
These are yes or no findings as the source states them, for the method shown. Some entries that bind do so weakly or less than the wild type. Where a sequence is shown, tags or fusion partners need not be part of it. One block for each binder: values may come before it.

Key:
[1] = target: T1, soluble HEK (sHEK), complete extracellular domain (exodomain) of HEK encoded by exons I-VII (human) (UniProt P29320); assay: BIAcore; Fc fusion protein at 10 µg/ml (50 µl) on an sHEK-derivatised sensor chip; response 20 s after the end of the injection
T1 sequence (looked up): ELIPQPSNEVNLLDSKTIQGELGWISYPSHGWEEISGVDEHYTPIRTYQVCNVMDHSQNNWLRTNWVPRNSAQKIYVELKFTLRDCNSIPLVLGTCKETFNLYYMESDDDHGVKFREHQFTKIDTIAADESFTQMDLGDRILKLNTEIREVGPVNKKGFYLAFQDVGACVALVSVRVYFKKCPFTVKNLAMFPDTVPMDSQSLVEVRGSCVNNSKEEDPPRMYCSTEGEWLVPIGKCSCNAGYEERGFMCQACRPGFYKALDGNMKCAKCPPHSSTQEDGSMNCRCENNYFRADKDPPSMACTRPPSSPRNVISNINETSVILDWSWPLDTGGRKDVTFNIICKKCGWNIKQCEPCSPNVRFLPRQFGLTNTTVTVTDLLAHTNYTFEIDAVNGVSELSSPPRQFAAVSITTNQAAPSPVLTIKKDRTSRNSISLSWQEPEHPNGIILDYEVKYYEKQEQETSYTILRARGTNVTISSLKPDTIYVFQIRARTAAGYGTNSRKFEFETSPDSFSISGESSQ

[2] = target: T1, soluble HEK (sHEK), complete extracellular domain (exodomain) of HEK encoded by exons I-VII (human); assay: BIAcore, LERK-Fc over HEK-derivatised sensor chip
[3] = target: T1, soluble HEK (sHEK), complete extracellular domain (exodomain) of HEK encoded by exons I-VII (human); assay: BIAcore, LERK-Fc fusion over sensor chip-immobilised HEK exodomain
[4] = target: T1, soluble HEK (sHEK), complete extracellular domain (exodomain) of HEK encoded by exons I-VII (human); assay: BIAcore, LERK-Fc fusion at 10 µg/ml over sensor chip-immobilised HEK exodomain

binding [1]: binds | binding [2]: binds | binding [3]: binds
B1: LERK 4-Fc fusion protein (Fc fusion, UniProt P52798 26-170, looked up, not shown: a dimerising Fc or GST)
chain: LRHVVYWNSSNPRLLRGDAVVELGLNDYLDIVCPHYEGPGPPEGPETFALYMVDWPGYESCQAEGPRAYKRWVCSLPFGHVQFSEKIQRFTPFSLGFEFLPGETYYYISVPTPESSGQCLRLQVSVCCKERKSESAHPVGSPGES

binding [4]: binds | binding [1]: binds | binding [2]: binds | binding [3]: binds
B2: LERK 2-Fc fusion protein (Fc fusion, UniProt P98172 28-237, looked up, not shown: a dimerising Fc or GST)
chain: LAKNLEPVSWSSLNPKFLSGKGLVIYPKIGDKLDIICPRAEAGRPYEYYKLYLVRPEQAAACSTVLDPNVLVTCNRPEQEIRFTIKFQEFSPNYMGLEFKKHHDYYITSTSNGSLEGLENREGGVCRTRTMKIIMKVGQDPNAVTPEQLTTSRPSKEADNTVKMATQAPGSRGSLGDSDGKHETVNQEEKSGPGASGGSSGDPDGFFNSK
